Results: US8987474B2 (University of South Florida, priority 2006, dated 2015)
At least one structure is not confirmed: it was looked up by name or label, or the drawing left a doubt.

Tests used:
[1] = system: EGF-induced Erk1/2 activation; test: EGF-induced Erk1/2 activation in MDA-MB-468 cells; format: cell-based, human; conditions: 3 h, EGF 2 ng/ml 10 min
Gab1PH-Shp2ΔN = conditions: dox-G1S2 cells, dox-induced, 3 h
[2] = system: PMA-induced Erk1/2 activation; test: PMA-induced Erk1/2 activation in HEK293 cells; format: cell-based; conditions: 20 μM, 3 h, PMA 100 nM 10 min

O=S(=O)(O)c1ccc2cc(/N=N\c3cc(S(=O)(=O)O)c4cccnc4c3O)ccc2c1 [NSC-87877, 8-hydroxy-7-(6-sulfonaphthalen-2-yl)diazenyl-quinoline-5-sulfonic acid]
EGF-induced Erk1/2 activation [1]: inhibited
Erk1/2 activation by Gab1PH-Shp2ΔN (Gab1PH-Shp2ΔN): inhibited
PMA-induced Erk1/2 activation [2]: did not affect
